Binding data for four molecules are collected here from patent US20230399395A1.

The target of assay [1] is cynomolgus macaques IL5 (cynomolgus macaques). In words: ELISA (legend of FIG. 3). (In an ELISA, binding on a coated surface is turned into a signal by an enzyme label.)
Assay [2] has the same target. The experiment in a line: ELISA, coated IL5, 2 µg/mL nanobody, anti-HA detection.

These are yes or no findings as the source states them, for the method shown. Binding calls can cover weak binding; strength is not graded here.

B1: Nb25 (VHH)
VHH: QVQLQESGGGSVQAGGSLRLSCAASEYTYSRYCMGWFRQVPGKEREGVATIDSDGSTSYADSVKGRFTISKDNAKNTLYLQMNSLKPEDTAMYYCAARYFYIATTGLRPCGEYEYNYWGQGTQVTVSS
Turning to B1, the binding result in assay [1] and in assay [2] was “binds” in each case.

B2: Nb66 (VHH)
VHH: QVQLQESGGGSVQAGGSLRLSCAASGYTVSSNMGWFRQAPGKEREGVAAIYPDGATYYADSVKGRFTISQDNAENTVYLQMNSLKPEDTAMYYCAADLAFNGLGTLALHGYWGQGTQVTVSS
For B2, the binding result in assay [1] and in assay [2] was “binds” each time.

B3: Nb21 (VHH)
VHH: QVQLQESGGGSAQAGGSLKLSCVVSGYPYSGDYCMGWFRQAPGKEREGVAAFYTGGGSTYYADSVKGRFTTSQDNATSTFHLQMNSLKPEDTATYYCAADPWSVYGGSCGVKDPNPKAFNYWGQGTQVTVSS
Turning to B3, the binding result in assay [1] and in assay [2] was “binds” throughout.

B4: Nb92 (VHH)
VHH: QVQLQESGGGLVQPGGSLRLSCAASGFTFSNYYMSWVRQAPGKGLEWVSSISSDGSNTYYEDSVKGRFTISRDNANNTLYLQMNSLKSEDTALYHCATDLYDDSWYDHWGQGTQVTVSS
For B4, the binding result in assay [1] and in assay [2] was “binds” each time.
